The results in this text go back to the supplement of paper PMC12819154, “High-throughput peptide-centric local stability assay extends protein–ligand identification to membrane proteins, tissues and bacteria” (Nature Structural & Molecular Biology, 2025).

Sequences of proteins named here, by UniProt entry; tags and fusion partners are left off. A change or cut given only in a name is not applied to a line headed by its entry.
UniProt O75127: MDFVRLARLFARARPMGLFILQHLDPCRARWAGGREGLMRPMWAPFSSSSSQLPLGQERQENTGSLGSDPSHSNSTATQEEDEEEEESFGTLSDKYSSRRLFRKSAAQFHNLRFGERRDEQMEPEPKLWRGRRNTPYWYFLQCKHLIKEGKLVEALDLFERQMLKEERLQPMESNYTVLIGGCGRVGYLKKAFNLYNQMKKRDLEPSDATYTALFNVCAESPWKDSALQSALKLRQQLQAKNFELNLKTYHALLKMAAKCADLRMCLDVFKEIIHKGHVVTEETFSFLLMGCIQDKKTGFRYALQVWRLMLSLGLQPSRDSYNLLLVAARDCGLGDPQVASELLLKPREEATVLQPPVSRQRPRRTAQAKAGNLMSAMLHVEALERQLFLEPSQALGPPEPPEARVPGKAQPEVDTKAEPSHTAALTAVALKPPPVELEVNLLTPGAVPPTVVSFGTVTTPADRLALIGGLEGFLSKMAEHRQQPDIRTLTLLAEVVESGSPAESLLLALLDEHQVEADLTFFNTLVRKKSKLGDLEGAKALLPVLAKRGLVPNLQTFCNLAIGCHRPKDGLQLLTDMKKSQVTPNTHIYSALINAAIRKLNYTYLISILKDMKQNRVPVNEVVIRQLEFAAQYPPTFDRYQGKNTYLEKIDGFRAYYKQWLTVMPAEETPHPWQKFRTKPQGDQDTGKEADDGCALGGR
UniProt O60716: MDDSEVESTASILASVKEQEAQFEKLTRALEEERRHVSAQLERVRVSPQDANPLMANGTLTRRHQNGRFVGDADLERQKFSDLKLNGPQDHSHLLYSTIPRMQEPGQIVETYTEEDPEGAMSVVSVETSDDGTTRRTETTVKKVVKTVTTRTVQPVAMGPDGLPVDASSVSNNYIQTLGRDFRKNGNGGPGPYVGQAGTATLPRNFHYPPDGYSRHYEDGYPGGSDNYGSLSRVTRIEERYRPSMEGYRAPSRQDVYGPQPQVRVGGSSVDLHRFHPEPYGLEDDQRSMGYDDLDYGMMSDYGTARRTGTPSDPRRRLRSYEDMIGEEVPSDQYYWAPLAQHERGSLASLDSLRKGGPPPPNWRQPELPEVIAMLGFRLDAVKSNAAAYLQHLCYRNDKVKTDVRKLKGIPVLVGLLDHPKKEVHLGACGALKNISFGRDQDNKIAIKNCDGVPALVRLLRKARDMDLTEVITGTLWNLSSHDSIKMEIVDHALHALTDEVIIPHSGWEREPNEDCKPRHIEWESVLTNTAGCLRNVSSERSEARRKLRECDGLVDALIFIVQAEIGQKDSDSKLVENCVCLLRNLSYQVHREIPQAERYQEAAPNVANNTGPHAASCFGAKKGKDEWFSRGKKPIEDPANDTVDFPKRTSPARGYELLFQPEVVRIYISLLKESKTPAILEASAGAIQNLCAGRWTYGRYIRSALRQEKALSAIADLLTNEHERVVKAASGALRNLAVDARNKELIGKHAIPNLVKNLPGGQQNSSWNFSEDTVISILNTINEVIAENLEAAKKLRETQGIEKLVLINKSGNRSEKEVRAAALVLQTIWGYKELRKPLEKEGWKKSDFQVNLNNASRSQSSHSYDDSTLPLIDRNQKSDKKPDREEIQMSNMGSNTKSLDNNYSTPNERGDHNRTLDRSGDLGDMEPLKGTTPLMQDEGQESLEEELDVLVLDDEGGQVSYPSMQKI
UniProt O43716: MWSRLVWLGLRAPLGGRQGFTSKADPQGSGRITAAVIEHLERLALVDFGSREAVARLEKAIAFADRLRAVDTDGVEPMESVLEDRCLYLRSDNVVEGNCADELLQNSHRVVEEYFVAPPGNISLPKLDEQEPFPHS
UniProt O43660: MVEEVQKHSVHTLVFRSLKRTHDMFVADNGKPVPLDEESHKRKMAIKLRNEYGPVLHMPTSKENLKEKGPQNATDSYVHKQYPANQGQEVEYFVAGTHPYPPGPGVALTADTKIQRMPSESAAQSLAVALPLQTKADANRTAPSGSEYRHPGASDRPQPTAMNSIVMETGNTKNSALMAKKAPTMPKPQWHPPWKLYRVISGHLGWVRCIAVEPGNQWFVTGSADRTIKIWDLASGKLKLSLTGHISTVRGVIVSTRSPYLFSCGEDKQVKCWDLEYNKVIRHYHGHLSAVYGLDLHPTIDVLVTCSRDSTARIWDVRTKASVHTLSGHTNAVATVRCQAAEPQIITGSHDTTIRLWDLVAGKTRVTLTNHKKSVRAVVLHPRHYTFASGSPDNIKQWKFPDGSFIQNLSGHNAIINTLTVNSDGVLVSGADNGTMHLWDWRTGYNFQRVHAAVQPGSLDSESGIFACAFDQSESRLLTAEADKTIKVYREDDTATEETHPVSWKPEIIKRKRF
UniProt O43815: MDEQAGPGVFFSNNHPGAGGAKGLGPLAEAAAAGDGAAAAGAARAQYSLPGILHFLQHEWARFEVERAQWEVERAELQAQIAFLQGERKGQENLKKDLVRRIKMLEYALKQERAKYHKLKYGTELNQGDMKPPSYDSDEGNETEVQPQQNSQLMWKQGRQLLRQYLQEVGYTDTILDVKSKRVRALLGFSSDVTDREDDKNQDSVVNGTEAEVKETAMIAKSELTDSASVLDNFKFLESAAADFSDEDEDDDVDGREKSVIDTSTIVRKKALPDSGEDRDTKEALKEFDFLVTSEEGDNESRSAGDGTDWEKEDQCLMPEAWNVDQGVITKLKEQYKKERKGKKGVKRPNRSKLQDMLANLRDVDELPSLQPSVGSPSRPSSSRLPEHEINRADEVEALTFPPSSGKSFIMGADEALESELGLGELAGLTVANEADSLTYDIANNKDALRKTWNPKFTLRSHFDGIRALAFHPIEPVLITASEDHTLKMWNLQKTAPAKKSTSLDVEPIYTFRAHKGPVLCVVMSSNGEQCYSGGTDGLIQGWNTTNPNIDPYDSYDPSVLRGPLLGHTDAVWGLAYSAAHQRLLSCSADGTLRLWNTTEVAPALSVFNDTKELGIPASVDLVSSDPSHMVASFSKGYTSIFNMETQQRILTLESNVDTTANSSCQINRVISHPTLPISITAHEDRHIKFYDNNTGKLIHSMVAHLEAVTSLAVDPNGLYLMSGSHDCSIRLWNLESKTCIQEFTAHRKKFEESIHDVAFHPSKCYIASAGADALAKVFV
UniProt O43683: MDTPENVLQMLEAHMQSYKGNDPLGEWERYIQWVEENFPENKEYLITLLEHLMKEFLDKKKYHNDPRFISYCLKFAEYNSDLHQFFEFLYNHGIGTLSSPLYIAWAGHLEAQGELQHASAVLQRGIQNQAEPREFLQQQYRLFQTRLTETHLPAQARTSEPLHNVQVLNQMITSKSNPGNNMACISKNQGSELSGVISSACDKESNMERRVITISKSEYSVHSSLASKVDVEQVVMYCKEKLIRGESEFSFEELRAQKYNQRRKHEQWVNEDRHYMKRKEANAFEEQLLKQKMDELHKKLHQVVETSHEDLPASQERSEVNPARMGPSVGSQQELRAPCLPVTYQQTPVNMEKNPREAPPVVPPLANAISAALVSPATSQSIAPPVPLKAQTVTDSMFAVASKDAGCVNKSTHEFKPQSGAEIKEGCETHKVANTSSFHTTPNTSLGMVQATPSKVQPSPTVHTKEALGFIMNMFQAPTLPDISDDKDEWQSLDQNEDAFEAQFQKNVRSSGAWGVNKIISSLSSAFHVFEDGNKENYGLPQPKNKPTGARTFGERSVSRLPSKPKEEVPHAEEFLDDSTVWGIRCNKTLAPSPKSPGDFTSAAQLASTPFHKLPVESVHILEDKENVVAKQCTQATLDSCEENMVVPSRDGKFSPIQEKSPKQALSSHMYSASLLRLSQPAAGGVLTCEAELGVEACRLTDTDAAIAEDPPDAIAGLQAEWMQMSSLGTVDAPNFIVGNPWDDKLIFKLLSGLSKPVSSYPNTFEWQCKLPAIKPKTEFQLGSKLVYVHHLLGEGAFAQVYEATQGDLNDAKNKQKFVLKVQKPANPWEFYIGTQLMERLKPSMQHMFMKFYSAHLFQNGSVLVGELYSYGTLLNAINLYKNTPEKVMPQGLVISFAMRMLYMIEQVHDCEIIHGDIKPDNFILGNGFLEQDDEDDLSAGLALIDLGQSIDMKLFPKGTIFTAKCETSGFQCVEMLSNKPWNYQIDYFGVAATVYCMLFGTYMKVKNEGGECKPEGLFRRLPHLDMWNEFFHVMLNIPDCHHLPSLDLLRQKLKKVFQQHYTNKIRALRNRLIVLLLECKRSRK
UniProt O43156, whole entry: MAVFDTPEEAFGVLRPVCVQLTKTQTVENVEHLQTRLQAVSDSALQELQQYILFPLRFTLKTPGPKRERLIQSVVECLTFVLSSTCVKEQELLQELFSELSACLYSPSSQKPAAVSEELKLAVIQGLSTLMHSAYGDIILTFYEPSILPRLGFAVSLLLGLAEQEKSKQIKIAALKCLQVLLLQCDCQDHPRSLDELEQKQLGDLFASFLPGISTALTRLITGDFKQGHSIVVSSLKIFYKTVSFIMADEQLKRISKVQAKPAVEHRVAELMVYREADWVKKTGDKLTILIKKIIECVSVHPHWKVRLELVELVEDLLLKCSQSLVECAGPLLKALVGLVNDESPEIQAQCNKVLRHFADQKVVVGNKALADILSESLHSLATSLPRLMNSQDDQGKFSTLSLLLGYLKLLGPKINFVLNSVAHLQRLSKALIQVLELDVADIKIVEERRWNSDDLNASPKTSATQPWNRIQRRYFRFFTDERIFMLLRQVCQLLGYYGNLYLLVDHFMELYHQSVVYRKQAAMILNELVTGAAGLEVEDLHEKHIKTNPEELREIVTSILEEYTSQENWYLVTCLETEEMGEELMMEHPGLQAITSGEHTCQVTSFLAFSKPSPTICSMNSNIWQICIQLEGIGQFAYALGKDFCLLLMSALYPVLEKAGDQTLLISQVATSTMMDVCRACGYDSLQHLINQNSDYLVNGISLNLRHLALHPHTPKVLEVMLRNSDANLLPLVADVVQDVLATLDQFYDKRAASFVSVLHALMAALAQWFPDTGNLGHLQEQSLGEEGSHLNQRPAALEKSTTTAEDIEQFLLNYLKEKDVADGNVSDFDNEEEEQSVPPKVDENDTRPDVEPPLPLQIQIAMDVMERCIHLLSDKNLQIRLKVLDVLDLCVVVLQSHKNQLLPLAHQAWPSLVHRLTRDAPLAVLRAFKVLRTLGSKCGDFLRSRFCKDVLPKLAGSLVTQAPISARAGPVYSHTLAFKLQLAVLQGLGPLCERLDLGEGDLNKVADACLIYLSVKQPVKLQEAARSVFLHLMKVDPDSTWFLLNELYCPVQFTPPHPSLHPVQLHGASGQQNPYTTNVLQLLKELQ
UniProt O60307: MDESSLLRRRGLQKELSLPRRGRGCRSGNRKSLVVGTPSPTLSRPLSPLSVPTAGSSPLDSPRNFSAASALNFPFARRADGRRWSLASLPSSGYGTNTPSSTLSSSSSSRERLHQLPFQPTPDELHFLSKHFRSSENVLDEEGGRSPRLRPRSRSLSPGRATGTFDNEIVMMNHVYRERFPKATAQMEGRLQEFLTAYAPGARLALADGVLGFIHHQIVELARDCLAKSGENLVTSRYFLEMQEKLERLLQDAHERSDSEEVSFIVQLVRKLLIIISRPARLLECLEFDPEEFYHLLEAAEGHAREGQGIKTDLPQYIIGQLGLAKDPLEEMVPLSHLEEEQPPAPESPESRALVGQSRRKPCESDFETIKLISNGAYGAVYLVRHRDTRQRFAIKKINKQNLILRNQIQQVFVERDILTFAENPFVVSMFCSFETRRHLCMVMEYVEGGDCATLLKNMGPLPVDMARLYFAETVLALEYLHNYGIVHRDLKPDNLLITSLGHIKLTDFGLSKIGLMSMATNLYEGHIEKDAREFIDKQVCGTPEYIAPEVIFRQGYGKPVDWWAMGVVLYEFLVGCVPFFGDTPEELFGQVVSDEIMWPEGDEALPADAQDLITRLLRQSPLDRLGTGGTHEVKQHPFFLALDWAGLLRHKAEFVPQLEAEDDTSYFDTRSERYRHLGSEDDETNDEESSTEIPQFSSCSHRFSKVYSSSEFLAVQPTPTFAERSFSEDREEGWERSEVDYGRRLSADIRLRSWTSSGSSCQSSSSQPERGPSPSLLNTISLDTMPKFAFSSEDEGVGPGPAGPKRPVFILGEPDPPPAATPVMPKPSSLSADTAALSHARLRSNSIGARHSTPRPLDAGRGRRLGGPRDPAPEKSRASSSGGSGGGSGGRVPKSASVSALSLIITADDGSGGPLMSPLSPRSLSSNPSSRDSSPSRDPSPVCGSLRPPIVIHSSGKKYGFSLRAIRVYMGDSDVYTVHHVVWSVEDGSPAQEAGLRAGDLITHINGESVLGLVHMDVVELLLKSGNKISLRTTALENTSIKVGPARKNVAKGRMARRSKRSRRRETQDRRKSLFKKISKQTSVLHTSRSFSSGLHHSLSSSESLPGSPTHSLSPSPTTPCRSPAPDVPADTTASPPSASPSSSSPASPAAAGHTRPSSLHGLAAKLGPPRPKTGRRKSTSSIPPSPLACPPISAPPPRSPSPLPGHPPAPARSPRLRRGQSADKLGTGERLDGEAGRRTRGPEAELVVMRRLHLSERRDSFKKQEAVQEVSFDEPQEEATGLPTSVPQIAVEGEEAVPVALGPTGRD

The other results are listed elsewhere or left out. Most entries show no effect beyond the scatter of the controls.

Compound in this experiment: Cc1nc(Nc2ncc(C(=O)Nc3c(C)cccc3Cl)s2)cc(N2CCN(CCO)CC2)n1 [dasatinib]
In words: log2 fold change of tryptic peptide abundance, ligand vs vehicle (limited proteolysis) (log2 ratio); higher = more trypsin-susceptible (destabilized). The settings on record: ligand concentration: 5 uM; sample: K562 cleared lysate.
Take “PTCD1 (peptide sequence: EADDGCALGGR, peptide start residue: 690) (UniProt O75127)”: the log2 fold change is -0.376.

With “TBCA (peptide sequence: VMYEKEAK, peptide start residue: 24) (UniProt O75347)”, the log2 fold change is -0.0797.

For “CTNND1 (peptide sequence: HAIPNLVK, peptide start residue: 750) (UniProt O60716)”, the log2 fold change was -0.111.

For “SH3BGRL (peptide sequence: VYIASSSGSTAIK, peptide start residue: 5) (UniProt O75368)”, the log2 fold change was determined as 0.0746.

For the target “MTSS1 (peptide sequence: VADMATNTR, peptide start residue: 60) (UniProt O43312)”, the log2 fold change was -0.302.

As to “UniProt O75123 (peptide sequence: SVDKGEHTGNL, peptide start residue: 526)”, the log2 fold change is -0.807.

Turning to “UniProt O43776 (peptide sequence: SPAGSIVHELNPNFQPPKRPFK, peptide start residue: 368)”, the log2 fold change worked out at 0.392.

As for “GATC (peptide sequence: LALVDFGSR, peptide start residue: 43) (UniProt O43716)”, the log2 fold change was 0.767.

On to “ARHGAP6 (peptide sequence: HADDNISK, peptide start residue: 532) (UniProt O43182)”, for which the log2 fold change was 0.299.

Turning to “XRCC3 (peptide sequence: LVVIDSVAAPFR, peptide start residue: 209) (UniProt O43542)”, the log2 fold change was 0.205.

As to “PLRG1 (peptide sequence: TAPSGSEYR, peptide start residue: 141) (UniProt O43660)”, the log2 fold change was -0.156.

For the target “MRPS14 (peptide sequence: KMAYEYADER, peptide start residue: 42) (UniProt O60783)”, the log2 fold change was determined as 0.113.

With “HUS1 (peptide sequence: IVDGACLNHFTR, peptide start residue: 7) (UniProt O60921)”, the log2 fold change was 0.145.

“PDCD6 (peptide sequence: SIISMFDRENK, peptide start residue: 67) (UniProt O75340)”: the log2 fold change stood at 0.106.

Turning to “STRN (peptide sequence: SVIDTSTIVR, peptide start residue: 259) (UniProt O43815)”, the log2 fold change is -0.0606.

As for “UniProt O75290 (peptide sequence: GSNLNQHR, peptide start residue: 569)”, the log2 fold change was found to be 0.487.

As to “GGCT (peptide sequence: ENGLPLEYQEK, peptide start residue: 149) (UniProt O75223)”, the log2 fold change was -0.147.

With “UniProt O60502 (peptide sequence: YTKPNGDKELSEAEK, peptide start residue: 805)”, the log2 fold change was found to be 0.171.

For “UniProt O75346 (peptide sequence: EIFQCDKYGK, peptide start residue: 142)”, the log2 fold change is 0.715.

Turning to “SIPA1L1 (peptide sequence: QNTQSDIGGSGK, peptide start residue: 1188) (UniProt O43166)”, the log2 fold change was -1.26.

Consider “MAFK (peptide sequence: GPVAPSK, peptide start residue: 124) (UniProt O60675)”, for which the log2 fold change was 0.0721.

For the target “UniProt O43309 (peptide sequence: SVLTEHQR, peptide start residue: 510)”, the log2 fold change is -0.108.

As to “EIF1B (peptide sequence: KNICQFLLEVGIVKEEQLK, peptide start residue: 91) (UniProt O60739)”, the log2 fold change came out at 0.145.

Take “BUB1 (peptide sequence: TEFQLGSK, peptide start residue: 778) (UniProt O43683)”: the log2 fold change was -0.309.

Regarding “UniProt O43156 (peptide sequence: QGHSIVVSSLK, peptide start residue: 227)”, the log2 fold change was found to be 0.712.

As to “MAST3 (peptide sequence: HKAEFVPQLEAEDDTSYFDTR, peptide start residue: 651) (UniProt O60307)”, the log2 fold change is -0.415.

In the case of “XYLB (peptide sequence: ALIEGQFMAK, peptide start residue: 410) (UniProt O75191)”, the log2 fold change was -0.375.

Turning to “DUSP11 (peptide sequence: YSWNVKPNASR, peptide start residue: 341) (UniProt O75319)”, the log2 fold change is 0.152.

In the case of “UniProt O43151 (peptide sequence: GGLSQQGLKPSLK, peptide start residue: 1207)”, the log2 fold change was 0.442.
